PubChem BioAssay AID602196 – INSERM | 2012
Purpose: 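Knock-downs that protect lung cancer cells from cisplatin or sensitise them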. Cells: human A549 lung cancer cells. Reagents: siRNA pair against human genes. Time to read-out: 48 h transfection before cisplatin; time from cisplatin to read-out not stated. Treatment: cisplatin at a dose killing half of control-siRNA cells; exact dose and duration not given. Measured: 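Shift in cisplatin death relative to control siRNA, from -50 (all cells die) to +50 (no cells die); siRNAs harmful on their own scored 0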. Direction: two-siRNA summed score (-2 to +2): higher = both siRNAs protect from cisplatin killing; -2 means both sensitise; mean protection from cisplatin (shift in death) and protection from cisplatin (shift in death), siRNA C and protection from cisplatin (shift in death), siRNA D: higher = protection from cisplatin killing. Rule for the call: 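siRNAs harmful alone (LDH or WST-1) get 0; others get +1 for less and -1 for more cisplatin killing; genes are active when the two siRNAs give the same sign, summing to ±2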. Meaning of the calls: active = both siRNAs shift cisplatin killing the same way; inactive = no consistent shift, or siRNA harmful alone.
Shown is one part, drawn at random, of about 23,000 deposited reagents. In the full data, 455 (2%) were called active. 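Active includes both protection and sensitisation; some change values fall well beyond the stated -50 to +50 range.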 Unmarked entries are inactive. Reagents against one gene are numbered here. No sequences are given here. The record does not give: the amount of reagent.

| target | reagent | two-siRNA summed score (-2 to +2) | mean protection from cisplatin (shift in death) (%) | protection from cisplatin (shift in death), siRNA C (%) | protection from cisplatin (shift in death), siRNA D (%) |
| --- | --- | --- | --- | --- | --- |
| LOC440447 | 1 | 0 | -4.6 | -10.4 | 1.3 |
| LOC152573 | 1 | 0 | 7.8 | 8.9 | 6.8 |
| LOC441469 | 1 | 0 | 1.3 | 13 | -10.4 |
| RSL24D1 | 1 | 0 | 14.9 | 18 | 11.8 |
| TSPAN15 | 1 | 0 | 15.5 | 11.4 | 19.6 |
| TG | 1 | 0 | 0.5 | 4.2 | -3.1 |
| ANKRD13A | 1 | 0 | 8.5 | 5 | 12 |
| OGFRL1 | 1 | 1 | 10.8 | 33.3 | -11.6 |
| LOC389253 | 1 | 0 | -14.4 | -14.2 | -14.6 |
| NEK3 | 1 | 1 | 9.2 | 0.7 | 17.6 |
| NCR3 | 1 | 0 | 4.2 | 2.8 | 5.6 |
| SRR | 1 | 1 | 15.6 | 28.9 | 2.3 |
| TRPV4 | 1 | 0 | -4.8 | -2.5 | -7 |
| CARM1 | 1 | 0 | -13.4 | 9.5 | -36.4 |
| LAMTOR3 | 1 | 1 | 28 | 52 | 4 |
| NR4A1 | 1 | 0 | -16.2 | -8.9 | -23.6 |
| YTHDC2 | 1 | 0 | 0.4 | -1.7 | 2.6 |
| ZP2 | 1 | 0 | -2.7 | -3 | -2.3 |
| GRID1 | 1 | 0 | -4.3 | 5.5 | -14.1 |
| GBF1 | 1 | 0 | 6.7 | -4.4 | 17.9 |
| LOC388915 | 1 | 0 | 6.3 | 20.1 | -7.5 |
| VPS18 | 1 | 0 | 6.8 | 17.4 | -3.7 |
| NMBR | 1 | 1 | 2.8 | 15.4 | -9.9 |
| ZNF417 | 1 | 0 | -0.9 | 6.3 | -8 |
| LOC402641 | 1 | 0 | 0.2 | 6 | -5.6 |
| TINCR | 1 | -2 (active) | -17.4 | -22.8 | -12 |
| DUSP18 | 1 | 0 | 3 | 10.6 | -4.7 |
| OR2A2 | 1 | 0 | -0.4 | 6.6 | -7.5 |

Reagents listed above marked active, once more:
| target | reagent | two-siRNA summed score (-2 to +2) | mean protection from cisplatin (shift in death) (%) | protection from cisplatin (shift in death), siRNA C (%) | protection from cisplatin (shift in death), siRNA D (%) |
| --- | --- | --- | --- | --- | --- |
| TINCR | 1 | -2 (active) | -17.4 | -22.8 | -12 |

More reagents:
| target | reagent | two-siRNA summed score (-2 to +2) | mean protection from cisplatin (shift in death) (%) | protection from cisplatin (shift in death), siRNA C (%) | protection from cisplatin (shift in death), siRNA D (%) |
| --- | --- | --- | --- | --- | --- |
| ATP2C1 | 1 | 0 | 12.5 | 6.8 | 18.2 |
| TPSAB1 | 1 | 0 | -5.6 | -2.5 | -8.7 |
| GFER | 1 | -1 | -7.2 | -4.9 | -9.5 |
| BPIFA3 | 1 | 0 | 2.8 | 12.7 | -7.1 |
| BPIFA3 | 2 | 0 | 5.9 | -1.4 | 13.2 |
| OXSM | 1 | 0 | -3.6 | -10.8 | 3.6 |
| BCL10 | 1 | 0 | 5.1 | 11.5 | -1.3 |
| ZZZ3 | 1 | 0 | -0.8 | 1 | -2.5 |
| LRRC32 | 1 | 0 | -5 | -6 | -3.9 |
| PLAT | 1 | 0 | 7.7 | 1.4 | 14.1 |
| ZNF576 | 1 | 0 | -5.5 | -4.4 | -6.6 |
| ORMDL2 | 1 | 0 | 7.5 | 12.9 | 2.1 |
| CHMP1B | 1 | 0 | -5.5 | -14.5 | 3.4 |
| ALPG | 1 | 0 | -1.4 | -4.4 | 1.7 |
| EXOG | 1 | -1 | -2.6 | 9.6 | -14.8 |
| GDI2 | 1 | 0 | -4.8 | -12 | 2.4 |
| OR2F2 | 1 | 0 | -4.9 | -0.8 | -9.1 |
| LOC441105 | 1 | 0 | 10.2 | 8.6 | 11.8 |
| TAS2R60 | 1 | 0 | 3.5 | -12.4 | 19.3 |
| IFRD2 | 1 | 1 | 6.3 | 1.9 | 10.7 |
| LOC400025 | 1 | 0 | -2.6 | -9.1 | 3.9 |
| SLITRK1 | 1 | 0 | 1.2 | -2.1 | 4.4 |
| KEAP1 | 1 | 0 | 25.7 | 7.5 | 44 |
| ZNF574 | 1 | 0 | 1.5 | 1.5 | 1.4 |
| SLC39A1 | 1 | 0 | 5.9 | 11.1 | 0.6 |
| PDK2 | 1 | 0 | -1.9 | -7.8 | 4 |
| LOC440778 | 1 | 2 (active) | 15.2 | 11.8 | 18.7 |
| C1orf50 | 1 | 0 | 6.8 | 7 | 6.5 |
| TIPE3 | 1 | 1 | 10.6 | 6.6 | 14.5 |
